Measurements published in US20120321635A1.
Results are given in words; binding and its absence hold for the method and conditions named. Binding seen in cells or lysates may run through a third protein. Some binding calls cover weakened binding; strength is not graded here. Tags and fused reporters may be left off the sequences shown.

Protein sequences, listed by entry. Tags and fused reporters are not part of them.
UniProt O96013: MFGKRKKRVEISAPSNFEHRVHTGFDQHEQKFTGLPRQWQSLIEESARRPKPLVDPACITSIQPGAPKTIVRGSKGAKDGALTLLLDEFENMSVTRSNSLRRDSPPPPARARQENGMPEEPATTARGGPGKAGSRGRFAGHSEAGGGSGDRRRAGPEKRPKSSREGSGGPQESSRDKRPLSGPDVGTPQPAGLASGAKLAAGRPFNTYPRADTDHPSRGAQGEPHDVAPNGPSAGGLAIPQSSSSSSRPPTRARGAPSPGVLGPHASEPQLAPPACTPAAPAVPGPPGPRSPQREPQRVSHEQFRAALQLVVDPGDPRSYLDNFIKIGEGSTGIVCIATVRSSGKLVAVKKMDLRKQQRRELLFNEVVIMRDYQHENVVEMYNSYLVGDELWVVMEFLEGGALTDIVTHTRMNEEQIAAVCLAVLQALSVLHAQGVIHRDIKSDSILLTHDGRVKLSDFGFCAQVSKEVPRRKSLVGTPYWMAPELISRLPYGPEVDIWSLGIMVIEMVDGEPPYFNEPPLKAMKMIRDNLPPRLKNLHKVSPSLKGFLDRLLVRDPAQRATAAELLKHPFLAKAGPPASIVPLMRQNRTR

Key:
[1] = target: p21-activated kinase 4 (PAK4) protein expressed from pcDNA-PAK4-flag vector (UniProt O96013); assay: co-immunoprecipitation and Western blotting
[2] = target: p21-activated kinase 4 (PAK4) protein expressed from pcDNA-PAK4-flag vector (UniProt O96013); assay: co-immunoprecipitation from HEK293T cytoplasm fraction (anti-Flag IP, anti-c-myc Western blot)
[3] = target: p21-activated kinase 4 (PAK4) protein expressed from pcDNA-PAK4-flag vector (UniProt O96013); assay: co-immunoprecipitation from HEK293T cells (restated from Example 3-1)

Measured: binding

B1: myc-labelled SH3RF2 (SH3 domain containing ring finger 2) protein expressed from pcDNA-SH3RF2-myc (enzyme, not shown: small tags and cut ends)
chain: MDDLTLLDLLECPVCFEKLDVTAKVLPCQHTFCKPCLQRVFKAHKELRCPECRTPVFSNIEALPANLLLVRLLDGVRSGQSSGRGGSFRRPGTMTLQDGRKSRTNPRRLQASPFRLVPNVRIHMDGVPRAKALCNYRGQNPGDLRFNKGDIILLRRQLDENWYQGEINGISGNFPASSVEVIKQLPQPPPLCRALYNFDLRGKDKSENQDCLTFLKDDIITVISRVDENWAEGKLGDKVGIFPILFVEPNLTARHLLEKNKGRQSSCTKNLSLVSSSSRGNTSTLRRGPGSRRKVPGQFSITTALNTLNRMVHSPSGRHMVEISTPVLISSSNPSVITQPMEKADVPSSCVGQVSTYHPAPVSPGHSTAVVSLPGSQQHLSANMFVALHSYSAHGPDELDLQKGEGVRVLGKCQDGWLRGVSLVTGRVGIFPNNYVIPIFRKTSSFPDSRSPGLYTTWTLSTSSVSSQGSISEGDPRQSRPFKSVFVPTAIVNPVRSTAGPGTLGQGSLRKGRSSMRKNGSLQRPLQSGIPTLVVGSLRRSPTMVLRPQQFQFYQPQGIPSSPSAVVVEMGSKPALTGEPALTCISRGSEARIHSAASSLIMEDKEIPIKSEPLPKPPASAPPSILVKPENSRNGIEKQVKTVRFQNYSPPPTKHYTSHPTSGKPEQPATLKASQPEAASLGPEMTVLFAHRSGCHSGQQTDLRRKSALAKATTLVSTASGTQTVFPSK
binds: all assays above
